From PMC11831766

Chains of the proteins cited; added tags and fusions are not shown.
UniProt Q9BVA1: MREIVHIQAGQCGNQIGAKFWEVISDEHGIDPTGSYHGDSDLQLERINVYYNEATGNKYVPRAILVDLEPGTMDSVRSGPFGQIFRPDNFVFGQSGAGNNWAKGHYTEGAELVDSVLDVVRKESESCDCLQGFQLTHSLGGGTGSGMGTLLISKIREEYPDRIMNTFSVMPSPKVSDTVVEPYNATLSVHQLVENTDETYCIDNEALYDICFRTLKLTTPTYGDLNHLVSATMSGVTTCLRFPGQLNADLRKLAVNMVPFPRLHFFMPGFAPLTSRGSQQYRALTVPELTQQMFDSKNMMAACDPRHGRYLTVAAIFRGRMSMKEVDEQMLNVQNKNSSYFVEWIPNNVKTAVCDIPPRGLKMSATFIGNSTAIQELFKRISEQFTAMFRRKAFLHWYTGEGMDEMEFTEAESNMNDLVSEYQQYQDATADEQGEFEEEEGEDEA
UniProt P68104: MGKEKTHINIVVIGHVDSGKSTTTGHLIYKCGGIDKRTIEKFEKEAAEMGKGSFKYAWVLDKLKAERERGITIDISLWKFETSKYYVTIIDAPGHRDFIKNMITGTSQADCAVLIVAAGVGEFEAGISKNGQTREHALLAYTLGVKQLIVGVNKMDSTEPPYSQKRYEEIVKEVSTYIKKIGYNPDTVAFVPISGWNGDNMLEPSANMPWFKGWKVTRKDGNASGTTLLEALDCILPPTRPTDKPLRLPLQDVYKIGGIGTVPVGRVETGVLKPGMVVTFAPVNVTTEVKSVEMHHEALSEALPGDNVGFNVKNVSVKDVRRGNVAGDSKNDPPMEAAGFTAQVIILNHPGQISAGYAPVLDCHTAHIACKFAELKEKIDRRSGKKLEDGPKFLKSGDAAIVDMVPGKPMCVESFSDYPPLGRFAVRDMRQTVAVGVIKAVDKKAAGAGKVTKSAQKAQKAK
UniProt P35579: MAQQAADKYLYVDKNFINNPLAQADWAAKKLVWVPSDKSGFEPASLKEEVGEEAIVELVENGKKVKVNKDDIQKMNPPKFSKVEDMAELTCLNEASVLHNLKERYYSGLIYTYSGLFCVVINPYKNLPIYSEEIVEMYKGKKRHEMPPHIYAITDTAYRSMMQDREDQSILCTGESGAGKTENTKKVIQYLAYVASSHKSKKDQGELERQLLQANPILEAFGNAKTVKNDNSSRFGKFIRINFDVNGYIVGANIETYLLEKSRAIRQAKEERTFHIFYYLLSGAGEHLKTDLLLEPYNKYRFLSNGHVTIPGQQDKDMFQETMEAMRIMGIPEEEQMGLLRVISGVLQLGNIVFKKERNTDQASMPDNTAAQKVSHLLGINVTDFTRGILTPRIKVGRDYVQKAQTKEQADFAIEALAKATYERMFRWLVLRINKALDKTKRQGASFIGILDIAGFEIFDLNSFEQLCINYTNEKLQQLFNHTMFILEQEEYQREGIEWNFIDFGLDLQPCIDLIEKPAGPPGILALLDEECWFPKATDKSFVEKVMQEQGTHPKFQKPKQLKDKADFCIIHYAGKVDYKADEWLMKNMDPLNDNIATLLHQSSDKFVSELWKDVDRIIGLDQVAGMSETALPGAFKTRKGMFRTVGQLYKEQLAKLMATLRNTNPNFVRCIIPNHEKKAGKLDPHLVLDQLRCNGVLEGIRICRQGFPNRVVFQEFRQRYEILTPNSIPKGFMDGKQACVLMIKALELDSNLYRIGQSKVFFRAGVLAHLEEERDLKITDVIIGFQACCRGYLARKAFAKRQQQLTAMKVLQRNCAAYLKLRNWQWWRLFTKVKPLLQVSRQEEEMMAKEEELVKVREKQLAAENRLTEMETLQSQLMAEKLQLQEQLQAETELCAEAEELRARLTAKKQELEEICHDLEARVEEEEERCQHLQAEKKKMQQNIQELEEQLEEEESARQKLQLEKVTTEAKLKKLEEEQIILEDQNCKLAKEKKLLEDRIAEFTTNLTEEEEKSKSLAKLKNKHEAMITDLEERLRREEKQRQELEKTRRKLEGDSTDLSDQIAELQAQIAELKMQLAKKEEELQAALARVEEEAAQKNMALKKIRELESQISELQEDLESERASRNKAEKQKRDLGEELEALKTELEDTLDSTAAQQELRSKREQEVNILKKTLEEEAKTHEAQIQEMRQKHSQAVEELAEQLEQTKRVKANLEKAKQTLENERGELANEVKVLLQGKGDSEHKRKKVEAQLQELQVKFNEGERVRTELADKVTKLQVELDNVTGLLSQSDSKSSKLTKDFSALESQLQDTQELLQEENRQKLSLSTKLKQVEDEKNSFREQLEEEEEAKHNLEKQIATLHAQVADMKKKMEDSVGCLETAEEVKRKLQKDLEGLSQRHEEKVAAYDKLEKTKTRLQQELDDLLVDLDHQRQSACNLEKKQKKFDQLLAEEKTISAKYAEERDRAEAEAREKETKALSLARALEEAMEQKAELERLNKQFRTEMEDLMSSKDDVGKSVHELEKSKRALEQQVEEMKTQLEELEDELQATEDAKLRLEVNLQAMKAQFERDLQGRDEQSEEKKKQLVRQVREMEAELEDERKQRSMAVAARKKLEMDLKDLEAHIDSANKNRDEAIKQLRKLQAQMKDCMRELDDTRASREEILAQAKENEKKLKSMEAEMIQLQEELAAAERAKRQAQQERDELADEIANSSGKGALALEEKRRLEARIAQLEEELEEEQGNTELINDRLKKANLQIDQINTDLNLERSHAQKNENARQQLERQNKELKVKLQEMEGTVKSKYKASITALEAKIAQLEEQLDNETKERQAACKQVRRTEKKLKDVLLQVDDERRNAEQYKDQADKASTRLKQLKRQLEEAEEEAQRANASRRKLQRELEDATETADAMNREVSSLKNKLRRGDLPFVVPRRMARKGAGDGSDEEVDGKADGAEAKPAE

Biological target: flag-TUBB2B (Tubulin beta 2B class IIb, Flag-tagged) (UniProt Q9BVA1)
Assay: affinity purification with mass spectrometry; IP from lysate (EBC buffer) of flag-TUBB2B overexpressing TNBC cells, Protein G Dynabeads, SDS-PAGE, differential bands excised, LC-MS/MS

Substance | binding
eukaryotic translation elongation factor 1 alpha 1 (eEF1A1) (from UniProt P68104 1-462) | binds
myosin heavy chain 9 (MYH9) (from UniProt P35579 1-1960) | binds

These are yes or no findings as the source states them, for the method shown. Binding seen in cells or lysates may run through a third protein. These calls come from enrichment with a bait or labelling near it, and not all partners need be listed.
